Reference: patent US9107925B2 (priority 2010, dated 2015)

Tested on: patient with zoster distributed skin eruption (dermatoma T6) and severe pain
Details: human, in vivo

## CCN(CC)CC(=O)Nc1c(C)cccc1C [lidocaine]
  relief of the pain: no or poor relief of the pain
